In patent publication US20240216401A1, “COMBINATION THERAPY BY USING AKR1C3-ACTIVATED COMPOUND WITH IMMUNE CHECKPOINT INHIBITOR” (OBI Pharma, Inc., priority 2021, published 2024):
Where “and” joins values, the source holds several entries; their conditions need not be identical. Identical values can stand only once. This continues a long series; more values of the same kind are listed elsewhere.

Tested on: HepG2 tumor
Assay: Example 2: tumor volume, tumor weight and TGI in HepG2 tumor bearing humanized mice
Format: in vivo, Mus musculus
Conditions: G3 OBI-3424 (1 mg/kg)
Protocol: 1. Species: Mus musculus • Strain: Advanced immunodeficiency mouse. • (NOD.CgPrkdc^scid Il2rg) • Source: Trineo Biotechnology Co., LTD.
Each group contains six mice. The human hepatocellular carcinoma cell line HepG2 were subcutaneously inoculated to the advanced immune-deficiency mice. Total of 42 mice were included in this study.
2.2. […] The subcutaneous injection volume was […].
3.1. […] The injection was performed using insulin syringe with the dosage of 0.3 mg/kg or 1 mg/kg and the injection volume was 5 mL/kg. […] The reference item was administered for G1. The procedure followed the standards of sample administration. The starting day of test item administration was denoted as the first experimental day (DO).
3.2. […] The injection was performed using insulin syringe with the dosage of 20 mg/kg and injection volume of 10 mL/kg. […] The procedure followed the standards of sample administration.
The measurement was performed from the next day of the inoculation. The tumor volumes were measured and recorded twice a week (Mon., Thur.). Tumor volume was calculated by ellipsoid equation according to the records ((major axis×minor axis×minor axis)×(π/6)).
Tumor volumes were used to calculate tumor growth inhibition (TGI) rates according to the following formula: TGI (%)=[1−(Ti−T0)/(Ci−C0)]×100, where Ti and Ci indicate the mean tumor volume in the treatment groups and vehicle group at the end of the experiment (Day 30). Whereas, T0 and C0 indicate the mean tumor volumes in the treatment group and vehicle group at the beginning of the experiment (Day 0).
Mice were sacrificed by CO2 euthanasia at the end of the study duration, and the connective tissue around tumor was resected. The tumor samples were then weighed and cut equally into three sections if the tumor weight over 400 mg. The tumor tissue was prepared for the isolation of tumor-infiltrating lymphocytes (TILs). The rest of one section was fixed in 10% formaldehyde and embedded in paraffin; the other was stored at a temperature below −70° C.

C[C@H](OP(=O)(N1CC1)N1CC1)c1ccc([N+](=O)[O-])c(Oc2cccc(C(=O)N(C)C)c2)c1 [OBI-3424, (S)-1-(3-(3-N,N-dimethylaminocarbonyl)phenoxyl-4-mtrophenyl)-1-ethyl-N,N′-bis(ethylene)phosphoramidate]
Tumor volume (D0, group Mean): 294.7 mm^3
Tumor volume (D0, individual animals, 1 mg/kg): 233.0 mm^3 and 306.6 mm^3 and 332.7 mm^3
Tumor volume (D2, group Mean): 299.1 mm^3
Tumor volume (D2, individual animals, 1 mg/kg): 238.8 mm^3 and 310.3 mm^3 and 334.6 mm^3
Tumor volume (D6, group Mean): 303.6 mm^3
Tumor volume (D6, individual animals, 1 mg/kg): 240.6 mm^3 and 312.8 mm^3 and 338.1 mm^3
Tumor volume (D9, group Mean): 365.9 mm^3
Tumor volume (D9, individual animals, 1 mg/kg): 301.7 mm^3 and 337.3 mm^3 and 416.4 mm^3
Tumor volume (D13, group Mean): 385.7 mm^3
Tumor volume (D13, individual animals, 1 mg/kg): 342.7 mm^3 and 352.9 mm^3 and 422.6 mm^3
Tumor volume (D16, group Mean): 418.2 mm^3
Tumor volume (D16, individual animals, 1 mg/kg): 343.3 mm^3 and 354.8 mm^3 and 429.4 mm^3
Tumor volume (D20, group Mean): 414.4 mm^3
Tumor volume (D20, individual animals, 1 mg/kg): 343.7 mm^3 and 355.2 mm^3 and 425.6 mm^3
Tumor volume (D23, group Mean): 380.6 mm^3
Tumor volume (D23, individual animals, 1 mg/kg): 343.7 mm^3 and 355.2 mm^3 and 360.3 mm^3
Tumor volume (D27, group Mean): 315.0 mm^3
Tumor volume (D27, individual animals, 1 mg/kg): 327.7 mm^3 and 252.6 mm^3 and 341.1 mm^3
Tumor volume (D30, group Mean): 216.9 mm^3
Tumor volume (D30, individual animals, 1 mg/kg): 197.1 mm^3 and 145.5 mm^3 and 262.8 mm^3
